Assay results: PubChem BioAssay AID504444 (National Center for Advancing Translational Sciences (NCATS), 2011)
Values joined by “and” are separate entries in the source; they are usually repeats but may differ in a detail not shown here. Equal entries are not always repeated. The whole screen tested about 360,000 compounds, of which about 7,500 (2.1%) were called active. This list was built around the results that the source calls inconclusive (neither active nor inactive); the mix of calls is not that of the screen. Calls come from the whole dose curve; as a rule, active = well fitted inhibition curve with a large enough effect; inconclusive = small, poorly fitted or top-dose-only effect, or effect the other way; inactive = flat fitted curve, though single readings scatter. Potencies of inconclusive entries are doubtful fits and often do not repeat.

Assay: Nrf2 qHTS screen for inhibitors; note: nearly all actives have a fitted effect of over 60% in size
Conditions: A549 ARE-Fluc reporter, luciferase luminescence, 18-24 h; series mostly up to 46 µM
In short: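 Reporter: ARE-Fluc in A549. Exposure: 18-24 h, 37 °C, 5% CO2, 5% FBS OPTI-MEM. Readouts: fluorescent cytotoxicity (CellTiter-Fluor), then luminescent Nrf2 signal after BugLite.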
Potency is the fitted concentration of half-maximal effect.

Row | Structure (SMILES) | Potency
1 | COCCCn1c(C(C)C)nc2oc3cc(OC)ccc3c(=O)c2c1=O | inconclusive: 29.1 µM [activator, single point]
2 | CCn1c(=O)[nH]c2cc(C(=O)Nc3cc(C)cc(C)c3)ccc2c1=O | active: 16.4 µM
3 | O=C(C=Cc1ccccc1)c1cc(Br)ccc1O | inconclusive: 20.6 µM [activator, single point]
4 | COc1ccc(OC)c(CCNC(=O)C(C)n2nc(C)c3c(C)n(-c4ccc(C)cc4)nc3c2=O)c1 (stereo not drawn) | active: 4.11 µM and active: 6.51 µM
5 | Cc1ccc2c(CSc3nc4ccccc4c(=O)n3CCCO)cc(=O)oc2c1 | inconclusive: 29.1 µM [falling, single point]
6 | CCc1ccc(S(=O)(=O)c2nnn3c2nc(Nc2cccc(C)c2C)c2sccc23)cc1 | inconclusive: 16.4 µM [falling, single point]
7 | CC1(C)C2CCC1(C)C1(C2)NC(=O)c2ccccc2O1 (stereo not drawn) | inconclusive: 29.1 µM [falling, single point]
8 | COc1ccc(-c2[nH]ncc2/C=N\NC(=O)c2ccc(C(C)(C)C)cc2)cc1OC | inconclusive: 7.31 µM [activator, partial curve]
9 | O=C(NCc1ccccc1Br)c1ccc(-n2cnc3cccnc32)cc1 | inactive
10 | COc1cc(-c2nnc(SCC(=O)N3CCCc4ccccc43)o2)cc(OC)c1OC | inconclusive: 13 µM [falling, single point]
11 | CC1(c2nnc(-c3ccc(F)cc3)o2)CC(c2c(Cl)cccc2Cl)=NO1 (stereo not drawn) | inconclusive: 29.1 µM [falling, single point]
12 | COc1ccc(N(CC(=O)Nc2ccc(Cl)cc2C)S(=O)(=O)c2ccccc2)c(OC)c1 | inconclusive: 29.1 µM [falling, single point]
13 | CCCCCC(=O)Nc1c(-c2ccc(OC)cc2)c(=O)c2ccccc2n1C | inconclusive: 29.1 µM [activator, single point]
14 | CC(=O)Nc1ccc2nc(NC(=O)CCc3ccccc3)sc2c1 | inconclusive: 25.9 µM [falling, single point]
15 | Cc1ccc(-c2cc(C(F)F)n3ncc(C(=O)N4CCN5CCCC5C4)c3n2)cc1 (stereo not drawn) | inconclusive: 4.11 µM [activator, full curve, poor fit]
16 | CC(C)(C)c1cc(NCCCn2ccnc2)n2ncc(-c3ccccc3)c2n1 | inconclusive: 2.59 µM [activator, full curve, poor fit]
17 | N#Cc1ccccc1NC(=O)C(=O)NCC(c1cccnc1)N1CCc2ccccc2C1 (stereo not drawn) | inconclusive: 29.1 µM [activator, single point]
18 | CCc1ccc2[nH]c3nc(SCC(=O)NNC(=O)c4ccc(C(C)(C)C)cc4)nnc3c2c1 | inconclusive: 9.2 µM [falling, partial curve, poor fit]
19 | O=C(c1csc2ccccc12)N1CCN(c2ccc(Cl)c(Cl)c2)CC1 | inconclusive: 20.6 µM [falling, partial curve]
20 | N#CC(c1ccccc1)c1cccc(Cl)n1 (stereo not drawn) | inactive
21 | COc1cc(CNc2nc3ccccc3[nH]2)cc(OC)c1OC | inconclusive: 4.61 µM [falling, full curve, poor fit]

Row | Structure (SMILES) | Potency
22 | O=C(NC1(C(F)(F)F)Oc2ccccc2O1)N1CCCC1 | inconclusive: 16.4 µM [activator, partial curve, poor fit]
23 | O=C(c1ccc(S(=O)(=O)N2CCCCC2)cc1)N1CCCC(C(F)(F)F)C1 (stereo not drawn) | inactive
24 | CCOC(=O)c1cc(-c2ccc3c(c2)OCCO3)nc2c1c(C)nn2CCC#N | active: 20.6 µM
25 | CC(C)c1ccc(S(=O)(=O)NCc2ccc3c(c2)OCO3)cc1 | inconclusive: 32.6 µM [falling, single point]
26 | O=C1Nc2c(ccc(Cl)c2Cl)C(=O)C1(F)c1ccccc1 (stereo not drawn) | inconclusive: 9.2 µM [activator, partial curve]
27 | N/C(=N\OC(=O)C(c1ccccc1)c1ccccc1)c1ccccn1 | inconclusive: 16.4 µM [falling, partial curve, poor fit]
28 | O=c1[nH]c(-c2ccccn2)nc(C(F)(F)F)c1Br | inconclusive: 9.2 µM [falling, partial curve]
29 | O=C(COC(=O)Cc1ccccc1F)Nc1cccc(S(=O)(=O)NC2=NCCCCC2)c1 | inconclusive: 0.206 µM [activator, full curve, poor fit]
30 | COc1ccc2cc3c(N)nn(C(=O)C4CCC(C(C)(C)C)CC4)c3nc2c1 (stereo not drawn) | inconclusive: 13 µM [falling, partial curve, poor fit]
31 | CCCCCOc1ccc2oc(=O)c3c(c2c1)CCCN3C(=O)CN1CCCC(C(=O)OCC)C1 (stereo not drawn) | inconclusive: 29.1 µM [falling, single point]
32 | CCOC(=O)C1=C(C)NC(=O)CC1c1cc2c(cc1Br)OCO2 (stereo not drawn) | inactive
33 | COc1ccc(CNCC(O)(c2ccccc2)c2ccc(F)cc2)cc1 (stereo not drawn) | inconclusive: 14.6 µM [activator, single point]
34 | COc1ccc(N2CCN(C(CNC(=O)C(=O)NCCCn3ccnc3)c3cccnc3)CC2)cc1 (stereo not drawn) | inconclusive: 29.1 µM [falling, single point]
35 | C=CCOc1ccc(/C=C/C(=O)OCC(=O)NCCCc2ccccc2)cc1 | inactive
36 | Cc1c(C(=O)NCCSCc2c(F)cccc2Cl)cnn1-c1ccc(Cl)cc1 | inconclusive: 13 µM [falling, partial curve, poor fit]
37 | COc1ccccc1N(CC(=O)N(CC(C)C)CC(C)C)S(=O)(=O)c1cccs1 | inconclusive: 29.1 µM [falling, single point]
38 | NC1=NC(=O)C(CC(=O)Nc2ccc3c(c2)OCO3)S1 (stereo not drawn) | inconclusive: 2.31 µM [activator, partial curve, poor fit]
39 | CCCN(C(=O)CCn1cnc2onc(-c3ccc(F)cc3)c2c1=O)c1ccccc1C | inconclusive: 14.6 µM [falling, partial curve, poor fit]
40 | O=C(Nc1ccc(N2CCOCC2)cc1)c1ccc(Cl)c(S(=O)(=O)N2CCCC2)c1 | active: 9.2 µM
41 | O=C(O)/C=C/c1cccc(NS(=O)(=O)c2ccccc2)c1 | inactive
42 | C=CCNC(=S)/N=c1/ccccn1Cc1ccccc1 | inconclusive: 16.4 µM [falling, single point]

3 structures from above, sorted by length of the SMILES, smallest number first:
Row | Structure (SMILES) | Potency
37 | COc1ccccc1N(CC(=O)N(CC(C)C)CC(C)C)S(=O)(=O)c1cccs1 | inconclusive: 29.1 µM [falling, single point]
39 | CCCN(C(=O)CCn1cnc2onc(-c3ccc(F)cc3)c2c1=O)c1ccccc1C | inconclusive: 14.6 µM [falling, partial curve, poor fit]
40 | O=C(Nc1ccc(N2CCOCC2)cc1)c1ccc(Cl)c(S(=O)(=O)N2CCCC2)c1 | active: 9.2 µM

(next part)

Row | Structure (SMILES) | Potency
43 | CCSc1nnc(NC(=O)c2ccc(C)cc2)s1 | inconclusive: 1.64 µM [activator, full curve]
44 | Cc1ccc(Cl)cc1N1CCN(C(=O)Cn2nc(C)n3c(cc4sccc43)c2=O)CC1 | inconclusive: 8.2 µM [activator, partial curve]
45 | O=C(NC(=S)Nc1ccccc1Cl)c1ccco1 | inconclusive: 8.2 µM [activator, partial curve]
46 | O=C(CCCCCN1C(=O)CCC1=O)Nc1ccc(Cl)c(C(F)(F)F)c1 | inconclusive: 29.1 µM [falling, single point]
47 | Cn1cc(/C=N/n2cnc3sc4c(c3c2=O)CCCC4)c2ccccc21 | inconclusive: 29.1 µM [falling, single point]
48 | Cc1cn2c(=O)cc(COc3cccc(NC(=O)c4cccc(F)c4)c3)nc2s1 | inconclusive: 3.26 µM [falling, partial curve, poor fit]
49 | Cc1ccc(-c2[nH]c3ccccc3c2C(C[N+](=O)[O-])c2ccco2)cc1 (stereo not drawn) | inconclusive: 29.1 µM [falling, single point]
50 | CCCCNC(=S)N/N=C/c1ccc(C)s1 | inconclusive: 8.2 µM [activator, partial curve, poor fit]
51 | Cc1ccc(C(CC(=O)Nc2ccc(C)cc2C)N2Cc3ccccc3C2=O)cc1 (stereo not drawn) | inconclusive: 16.4 µM [falling, partial curve, poor fit]
52 | COC(=O)c1c[nH]c2c1-c1cc(C(=O)OCc3ccccc3)n(S(=O)(=O)c3ccc(C)cc3)c1C(=O)C2=O | active: 4.11 µM
53 | C=CCn1c(SCC(=O)Nc2ccc(N3CCOCC3)cc2)nc2ccccc2c1=O | inactive
54 | Cc1cccc(C(=O)NCC(=O)Nc2ccc(S(=O)(=O)Nc3nc(C)cc(C)n3)cc2)c1 | inconclusive: 3.66 µM [falling, full curve, poor fit]
55 | CC1CC(NC(=O)c2c(O)nc3sccn3c2=O)CC(C)(C)C1 (stereo not drawn) | inconclusive: 10.3 µM [falling, partial curve]
56 | CCCC(CC)Sc1nc2c([nH]1)c(=S)n(C)c(=O)n2C (stereo not drawn) | inconclusive: 29.1 µM [falling, single point]
57 | CCOC(=O)c1cccc(NC(=O)C2CCN(c3nnc(C)c4c(C)n(-c5ccccc5)nc34)CC2)c1 | inactive
58 | Cc1cc(C)nc(/N=C(\N)Nc2ccccc2-c2ccccc2)n1 | inconclusive: 18.4 µM [falling, partial curve]
59 | CCN1CCN(c2ccc(S(=O)(=O)N3CCCCC3)cc2N)CC1 | inconclusive: 2.91 µM [activator, full curve, poor fit]
60 | COc1ccc(-c2ccc(-c3nnc(-c4cc(OC)ccc4OC)o3)cc2)cc1 | inconclusive: 0.731 µM [falling, partial curve, poor fit]
61 | Cc1ncn2cc(-c3ccc(Cl)cc3Cl)[nH]c(=O)c12 | inconclusive: 23.1 µM [falling, single point]
62 | CCOC(=O)C1=C(c2ccccc2)Nc2c(c(=O)n(C)c(=O)n2C)C1c1ccc(O)c(OC)c1 (stereo not drawn) | inconclusive: 0.082 µM [falling, full curve, poor fit]
63 | CCOc1ccc2nc(NC(=O)CSC3=NCCS3)sc2c1 | inconclusive: 16.4 µM [falling, single point]

2 entries from above, with tabs.
Row	Structure (SMILES)	Potency
55	CC1CC(NC(=O)c2c(O)nc3sccn3c2=O)CC(C)(C)C1 (stereo not drawn)	inconclusive: 10.3 µM [falling, partial curve]
57	CCOC(=O)c1cccc(NC(=O)C2CCN(c3nnc(C)c4c(C)n(-c5ccccc5)nc34)CC2)c1	inactive
